# According to the supplement of paper PMC12823440, “Inhibitors supercharge kinase turnover through native proteolytic circuits” (Nature, 2025):
# Amino acid sequences for entries named in this document (tags omitted). A change or cut given only in a name is not applied to a line headed by its entry.
# UniProt Q01974, whole entry: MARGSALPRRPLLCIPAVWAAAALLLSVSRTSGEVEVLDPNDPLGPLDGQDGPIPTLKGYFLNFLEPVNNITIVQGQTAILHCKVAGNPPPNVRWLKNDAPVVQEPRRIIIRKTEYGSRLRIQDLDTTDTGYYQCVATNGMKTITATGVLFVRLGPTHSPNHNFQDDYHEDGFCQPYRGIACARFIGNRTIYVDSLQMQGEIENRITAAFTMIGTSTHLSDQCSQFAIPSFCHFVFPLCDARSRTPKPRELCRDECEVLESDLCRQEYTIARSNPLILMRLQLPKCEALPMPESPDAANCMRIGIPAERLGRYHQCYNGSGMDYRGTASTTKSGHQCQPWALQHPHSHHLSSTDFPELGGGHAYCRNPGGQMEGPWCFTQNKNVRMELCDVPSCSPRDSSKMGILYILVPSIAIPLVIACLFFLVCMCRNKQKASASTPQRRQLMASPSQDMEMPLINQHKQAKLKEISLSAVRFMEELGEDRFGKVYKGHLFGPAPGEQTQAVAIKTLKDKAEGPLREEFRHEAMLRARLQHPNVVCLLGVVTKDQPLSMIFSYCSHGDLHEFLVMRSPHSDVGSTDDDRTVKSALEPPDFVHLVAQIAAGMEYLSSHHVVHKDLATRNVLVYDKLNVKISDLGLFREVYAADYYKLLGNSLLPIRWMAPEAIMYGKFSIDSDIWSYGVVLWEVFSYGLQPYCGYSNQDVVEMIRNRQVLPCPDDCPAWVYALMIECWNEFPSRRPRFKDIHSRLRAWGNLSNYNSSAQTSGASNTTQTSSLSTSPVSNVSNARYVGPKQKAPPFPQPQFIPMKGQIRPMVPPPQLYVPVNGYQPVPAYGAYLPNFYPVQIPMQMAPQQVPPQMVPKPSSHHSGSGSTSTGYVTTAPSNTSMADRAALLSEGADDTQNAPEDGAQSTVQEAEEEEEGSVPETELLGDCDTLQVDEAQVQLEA
# UniProt Q9NYA1, whole entry: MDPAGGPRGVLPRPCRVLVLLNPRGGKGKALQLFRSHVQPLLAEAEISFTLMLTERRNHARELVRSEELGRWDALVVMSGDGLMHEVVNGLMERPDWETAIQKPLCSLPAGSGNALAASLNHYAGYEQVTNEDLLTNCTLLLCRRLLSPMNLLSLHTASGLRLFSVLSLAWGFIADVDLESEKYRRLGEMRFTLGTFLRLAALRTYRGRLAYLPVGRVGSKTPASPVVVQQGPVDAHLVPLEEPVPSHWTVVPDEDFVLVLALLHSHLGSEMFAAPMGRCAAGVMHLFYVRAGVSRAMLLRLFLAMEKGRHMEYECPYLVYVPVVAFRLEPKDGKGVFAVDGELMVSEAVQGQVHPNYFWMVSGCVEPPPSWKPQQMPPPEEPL
# UniProt Q9Y6E0: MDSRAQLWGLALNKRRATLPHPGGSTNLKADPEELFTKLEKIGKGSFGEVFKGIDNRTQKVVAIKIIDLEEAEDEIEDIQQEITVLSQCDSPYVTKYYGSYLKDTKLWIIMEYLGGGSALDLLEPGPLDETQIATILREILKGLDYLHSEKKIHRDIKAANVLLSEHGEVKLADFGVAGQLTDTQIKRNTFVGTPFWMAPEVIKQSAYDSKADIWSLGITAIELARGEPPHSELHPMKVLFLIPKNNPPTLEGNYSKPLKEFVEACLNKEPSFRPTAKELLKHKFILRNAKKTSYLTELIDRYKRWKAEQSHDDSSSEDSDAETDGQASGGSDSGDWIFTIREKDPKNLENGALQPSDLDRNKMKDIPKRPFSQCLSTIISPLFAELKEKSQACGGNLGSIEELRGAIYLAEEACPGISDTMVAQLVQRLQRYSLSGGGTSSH
# UniProt Q15208: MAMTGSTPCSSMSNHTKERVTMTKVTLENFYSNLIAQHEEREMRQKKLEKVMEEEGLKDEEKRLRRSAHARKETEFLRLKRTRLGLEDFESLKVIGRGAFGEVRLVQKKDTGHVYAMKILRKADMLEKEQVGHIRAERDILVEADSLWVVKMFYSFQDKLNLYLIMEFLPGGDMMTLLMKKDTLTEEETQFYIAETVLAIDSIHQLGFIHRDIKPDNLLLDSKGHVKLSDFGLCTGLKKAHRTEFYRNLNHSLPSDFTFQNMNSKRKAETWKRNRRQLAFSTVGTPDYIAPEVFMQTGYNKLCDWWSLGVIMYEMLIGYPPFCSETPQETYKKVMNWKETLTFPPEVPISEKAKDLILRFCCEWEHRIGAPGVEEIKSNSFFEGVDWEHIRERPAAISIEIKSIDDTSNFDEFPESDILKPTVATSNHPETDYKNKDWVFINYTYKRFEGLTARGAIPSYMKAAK
# UniProt P42680: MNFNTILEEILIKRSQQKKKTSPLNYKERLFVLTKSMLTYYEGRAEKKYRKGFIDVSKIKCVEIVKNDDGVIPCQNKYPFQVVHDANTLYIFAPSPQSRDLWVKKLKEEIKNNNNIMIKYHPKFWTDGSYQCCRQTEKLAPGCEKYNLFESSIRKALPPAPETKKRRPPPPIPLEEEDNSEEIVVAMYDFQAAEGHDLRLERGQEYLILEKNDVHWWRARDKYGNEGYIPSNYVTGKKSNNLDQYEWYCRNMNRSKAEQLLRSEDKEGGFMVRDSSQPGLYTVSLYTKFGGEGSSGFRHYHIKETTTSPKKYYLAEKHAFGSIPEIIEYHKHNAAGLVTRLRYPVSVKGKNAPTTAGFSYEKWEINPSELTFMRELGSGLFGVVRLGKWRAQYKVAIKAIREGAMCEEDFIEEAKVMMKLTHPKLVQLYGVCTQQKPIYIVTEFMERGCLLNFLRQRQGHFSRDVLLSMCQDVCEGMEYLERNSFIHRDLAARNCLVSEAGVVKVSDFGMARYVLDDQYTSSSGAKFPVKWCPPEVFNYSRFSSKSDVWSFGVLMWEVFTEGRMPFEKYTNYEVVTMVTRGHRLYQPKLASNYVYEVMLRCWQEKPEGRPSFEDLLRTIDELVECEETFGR
# UniProt P29597: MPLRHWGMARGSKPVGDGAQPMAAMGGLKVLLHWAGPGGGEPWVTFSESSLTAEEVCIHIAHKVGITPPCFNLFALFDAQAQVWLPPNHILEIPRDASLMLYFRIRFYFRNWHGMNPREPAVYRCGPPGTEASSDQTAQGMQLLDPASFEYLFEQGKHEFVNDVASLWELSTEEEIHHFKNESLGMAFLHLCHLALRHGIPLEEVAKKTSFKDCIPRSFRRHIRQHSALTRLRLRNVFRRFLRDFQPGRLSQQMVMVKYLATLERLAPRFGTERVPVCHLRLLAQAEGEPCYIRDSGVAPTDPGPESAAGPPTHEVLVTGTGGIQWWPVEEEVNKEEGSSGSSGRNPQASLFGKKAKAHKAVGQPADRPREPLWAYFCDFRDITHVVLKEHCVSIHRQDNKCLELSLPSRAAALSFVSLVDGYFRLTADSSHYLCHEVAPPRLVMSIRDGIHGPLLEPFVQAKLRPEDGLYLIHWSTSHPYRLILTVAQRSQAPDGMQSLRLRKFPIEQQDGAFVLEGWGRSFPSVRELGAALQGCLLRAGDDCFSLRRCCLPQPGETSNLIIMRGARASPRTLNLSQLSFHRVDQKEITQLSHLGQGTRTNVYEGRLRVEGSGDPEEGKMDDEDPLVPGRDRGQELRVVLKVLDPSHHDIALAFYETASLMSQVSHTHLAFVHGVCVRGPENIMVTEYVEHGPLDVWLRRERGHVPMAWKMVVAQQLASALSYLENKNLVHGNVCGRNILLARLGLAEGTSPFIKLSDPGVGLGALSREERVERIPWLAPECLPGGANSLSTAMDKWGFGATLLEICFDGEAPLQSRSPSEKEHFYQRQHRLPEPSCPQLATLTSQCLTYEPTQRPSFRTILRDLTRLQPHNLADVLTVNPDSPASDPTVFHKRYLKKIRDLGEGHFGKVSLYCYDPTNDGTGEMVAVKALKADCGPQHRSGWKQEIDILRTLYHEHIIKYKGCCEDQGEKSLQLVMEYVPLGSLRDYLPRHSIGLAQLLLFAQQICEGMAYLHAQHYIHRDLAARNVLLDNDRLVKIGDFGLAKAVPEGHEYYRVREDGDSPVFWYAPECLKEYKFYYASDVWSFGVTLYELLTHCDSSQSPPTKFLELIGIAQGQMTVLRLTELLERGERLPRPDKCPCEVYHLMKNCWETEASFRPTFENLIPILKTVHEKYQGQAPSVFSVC
# UniProt Q6PHR2: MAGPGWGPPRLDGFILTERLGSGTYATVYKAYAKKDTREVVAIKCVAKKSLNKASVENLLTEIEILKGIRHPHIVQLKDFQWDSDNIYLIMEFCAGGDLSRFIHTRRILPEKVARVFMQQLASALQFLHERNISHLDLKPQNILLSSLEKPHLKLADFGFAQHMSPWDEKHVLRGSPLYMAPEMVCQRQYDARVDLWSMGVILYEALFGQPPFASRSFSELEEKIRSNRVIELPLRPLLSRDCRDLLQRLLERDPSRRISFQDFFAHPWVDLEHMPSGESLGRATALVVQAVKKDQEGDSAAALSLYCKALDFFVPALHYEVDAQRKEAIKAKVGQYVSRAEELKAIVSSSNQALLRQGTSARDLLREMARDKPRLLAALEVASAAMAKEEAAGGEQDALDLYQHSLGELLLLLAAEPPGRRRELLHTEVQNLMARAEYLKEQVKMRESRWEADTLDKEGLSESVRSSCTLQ
# UniProt P07947, whole entry, looked up: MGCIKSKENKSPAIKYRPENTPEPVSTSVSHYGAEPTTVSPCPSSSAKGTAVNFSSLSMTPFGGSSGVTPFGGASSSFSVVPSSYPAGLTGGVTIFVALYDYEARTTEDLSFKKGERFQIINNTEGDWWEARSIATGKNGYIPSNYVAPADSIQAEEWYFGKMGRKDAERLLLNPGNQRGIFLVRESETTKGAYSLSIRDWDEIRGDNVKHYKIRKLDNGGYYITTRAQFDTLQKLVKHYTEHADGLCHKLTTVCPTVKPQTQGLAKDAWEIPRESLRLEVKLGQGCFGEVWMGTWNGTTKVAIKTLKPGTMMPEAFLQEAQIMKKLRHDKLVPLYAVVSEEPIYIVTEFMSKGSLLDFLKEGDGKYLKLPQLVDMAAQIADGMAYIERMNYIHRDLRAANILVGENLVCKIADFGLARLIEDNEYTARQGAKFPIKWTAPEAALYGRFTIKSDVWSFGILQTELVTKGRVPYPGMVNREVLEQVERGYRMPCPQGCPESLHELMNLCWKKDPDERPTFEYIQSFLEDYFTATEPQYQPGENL
# UniProt P11802: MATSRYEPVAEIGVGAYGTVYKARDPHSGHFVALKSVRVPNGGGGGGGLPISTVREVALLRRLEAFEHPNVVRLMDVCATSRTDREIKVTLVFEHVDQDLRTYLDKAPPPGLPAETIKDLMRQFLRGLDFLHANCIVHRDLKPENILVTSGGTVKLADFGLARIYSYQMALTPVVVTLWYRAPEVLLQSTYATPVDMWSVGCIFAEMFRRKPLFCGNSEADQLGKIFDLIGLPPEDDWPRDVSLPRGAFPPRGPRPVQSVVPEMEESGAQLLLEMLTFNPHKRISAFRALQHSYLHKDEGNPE
# UniProt P50613: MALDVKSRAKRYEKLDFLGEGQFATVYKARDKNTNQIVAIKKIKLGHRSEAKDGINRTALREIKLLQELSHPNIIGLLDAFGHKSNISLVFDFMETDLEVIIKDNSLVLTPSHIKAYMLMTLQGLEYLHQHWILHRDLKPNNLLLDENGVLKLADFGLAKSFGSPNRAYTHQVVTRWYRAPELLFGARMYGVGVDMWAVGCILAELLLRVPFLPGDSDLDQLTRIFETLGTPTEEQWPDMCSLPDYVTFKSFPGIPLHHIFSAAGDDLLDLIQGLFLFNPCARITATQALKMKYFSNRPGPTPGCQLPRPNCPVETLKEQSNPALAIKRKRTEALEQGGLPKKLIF
# UniProt P50750, whole entry: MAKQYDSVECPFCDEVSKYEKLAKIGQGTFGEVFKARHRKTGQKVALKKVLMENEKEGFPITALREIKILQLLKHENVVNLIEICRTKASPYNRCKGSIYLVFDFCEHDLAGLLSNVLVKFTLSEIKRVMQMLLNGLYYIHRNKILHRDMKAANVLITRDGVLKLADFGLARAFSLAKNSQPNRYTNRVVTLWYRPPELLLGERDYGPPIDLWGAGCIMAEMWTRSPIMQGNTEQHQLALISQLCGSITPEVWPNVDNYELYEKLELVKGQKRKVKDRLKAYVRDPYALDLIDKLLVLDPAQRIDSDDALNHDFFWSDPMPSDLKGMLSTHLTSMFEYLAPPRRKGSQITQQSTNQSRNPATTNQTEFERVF
# Where a name gives a salt, the structure may show the parent alone. The list shows a part of the results. The calls rarely recur for the same compound in another form.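 Kinases, fused to nanoluciferase, were expressed in K562 cells; luminescence was measured every 4 h from 2 to 18 h as percent of control (DMSO = 100%, positive control = 0%). A time point is decreased if signal falls significantly (2 sigma). Hits were called by the authors by a rule that is not shown; the count of time points alone does not decide it.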
# Legend:
# Settings in all cases: K562; 2-18 h
# [1] = molecular target: ROR2 (UniProt Q01974); experiment: number of time points (of 5) at which kinase-Nluc abundance scored as decreased, DMSO-normalised (count); higher = more persistent destabilization
# [2] = molecular target: RPS6KA1 (UniProt Q15418); experiment: as above
# [3] = molecular target: SPHK1 (UniProt Q9NYA1); experiment: as above
# [4] = molecular target: SRC (UniProt P12931); experiment: as above
# [5] = molecular target: STK24 (UniProt Q9Y6E0); experiment: as above
# [6] = molecular target: STK38 (UniProt Q15208); experiment: as above
# [7] = molecular target: SYK (UniProt P43405); experiment: as above
# [8] = molecular target: TEC (UniProt P42680); experiment: as above
# [9] = molecular target: TYK2 (UniProt P29597); experiment: as above
# [10] = molecular target: ULK3 (UniProt Q6PHR2); experiment: as above
# [11] = molecular target: YES1 (UniProt P07947); experiment: as above
# [12] = molecular target: ZAK (UniProt Q9NYL2); experiment: as above
# [13] = molecular target: ZAP70 (UniProt P43403); experiment: as above
# [14] = molecular target: CDK4 (UniProt P11802); experiment: number of time points (of 4; 2 h point missing) at which kinase-Nluc abundance scored as decreased, DMSO-normalised (count); higher = more persistent destabilization
# [15] = molecular target: CDK7 (UniProt P50613); experiment: as above
# [16] = molecular target: CDK9 (UniProt P50750); experiment: as above
Compound,number of time points [1],number of time points [2],number of time points [3],number of time points [4],number of time points [5],number of time points [6],number of time points [7],number of time points [8],number of time points [9],number of time points [10],number of time points [11],number of time points [12],number of time points [13],number of time points [14],number of time points [15],number of time points [16]
NS(=O)(=O)c1ccc(Nc2nc(-c3cccc(-c4ccccc4)c3)c3[nH]cnc3n2)cc1 (10 µM),0,0,0,0,0,0,0,0,0,0,0,0,0,0,0,0
C=C1CCC[C@]2(C)C=C3OC(=O)C(C)=C3C[C@@H]12 [Atractylenolide I] (10 µM),0,0,0,0,0,0,0,0,0,0,0,0,0,0,0,0
O=C1NC(=O)/C(=C\c2c[nH]c(=O)c(-c3ccc(N4CCNCC4)nc3)c2)S1 [Protein kinase inhibitors 1 hydrochloride] (10 µM),0,0,0,0,0,0,0,0,0,0,0,0,0,0,0,0
Cc1cc(Nc2cc(N)ncn2)c(=O)n2c1C(=O)NC21CCCCC1 [Tomivosertib] (10 µM),0,0,0,0,0,0,0,0,0,0,0,0,0,0,0,0
CNC(=O)CNc1cnc2ccc(-c3ccc(OC)c(OC)c3)cc2n1 (10 µM),0,0,0,0,0,0,0,0,0,0,0,0,0,0,0,0
CC(Sc1nc2c(cnn2-c2cccc(Cl)c2)c(=O)[nH]1)C(N)=O (stereo not drawn) (10 µM),0,0,0,0,0,0,0,0,0,0,0,0,0,0,0,0
CCN(CC)CCCC(C)Nc1nc(C)cc(Nc2ccc3nc(C)cc(N)c3c2)n1 (stereo not drawn) (10 µM),0,0,0,0,0,0,0,0,0,1,0,0,0,0,0,0
O=C(Nc1cccnc1)c1cc(-c2ccnc(F)c2)ccc1OCc1ccccc1 (10 µM),0,0,0,0,0,0,0,0,0,0,0,0,0,0,0,0
COc1cc2ncnc(Nc3cccc(I)c3)c2cc1OC (2.5 µM),0,0,0,0,0,0,0,0,0,0,0,0,0,0,0,0
Nc1nccc(-c2c(-c3ccc(F)cc3)ncn2C2CCCCC2)n1 (10 µM),0,0,0,0,0,0,0,0,0,0,0,0,0,0,0,0
C#Cc1cccc(Nc2ncnc3cc(OC)c(NC(=O)N4C[C@H]5CCN(C)[C@H]5C4)cc23)c1 [Theliatinib] (10 µM),0,0,0,0,0,0,0,0,0,0,0,0,0,0,0,0
Cc1cc(C(=O)NC(C)(C)C)cc(C#Cc2ccc3c4c(oc3c2)C(C)(C)c2cc(NS(C)(=O)=O)ccc2C4=O)n1 (10 µM),0,0,0,0,0,0,0,0,0,0,0,0,0,0,0,1
Nc1ncc(-c2ccnc(Nc3ccncc3)n2)c(CC2CC2)n1 (10 µM),0,0,0,0,0,0,0,2,0,0,0,0,0,0,0,0
O=C(c1cccc(Cl)c1F)N1CCN(Cc2cccc(Nc3nccs3)n2)CC1 (2.5 µM),0,0,0,0,0,0,0,0,0,0,0,0,0,0,0,0
O=c1[nH]ccc2nc(-c3ccc(CN4CCC(c5nc(-c6ccccn6)n[nH]5)CC4)cc3)c(-c3ccccc3)cc12 (10 µM),0,0,0,0,0,0,0,0,0,0,0,0,0,0,0,0
c1nc2c(NC3CCCCC3)nc(Nc3ccc(N4CCOCC4)cc3)nc2[nH]1 [Reversine] (10 µM),0,0,0,0,0,0,0,0,4,0,0,0,0,0,2,0
COc1ccc(-c2cc(=O)c3c(OC)cc(OC)c(OC)c3o2)cc1 [6-Demethoxytangeretin] (10 µM),0,0,0,0,0,0,0,0,0,0,0,0,0,0,0,0
COc1cc(F)ccc1-c1ncnc(Nc2cccc(C[S@](C)(=N)=O)c2)n1 [Atuveciclib] (2.5 µM),0,0,0,0,0,0,0,1,3,0,2,0,0,0,1,3
NC1(C(=O)NCCCn2cc(-c3ccc(OC(F)(F)F)cc3)c3cc(CN4CCN(Cc5c(Cl)cccc5Cl)CC4)ccc32)CCNCC1 (2.5 µM),0,0,0,0,0,0,1,0,0,0,1,0,0,0,0,0
CC(C)n1c(=O)n(C)c2cnc3cc(F)c(-c4ccc(OCCCN5CCCCC5)nc4)cc3c21 (10 µM),0,0,0,0,0,0,0,0,0,0,0,0,0,0,0,0
Brc1ccc(CSc2nc3ccccc3o2)cc1 [BMP signaling agonist sb4] (10 µM),0,0,0,0,0,0,0,0,0,0,0,0,0,0,0,0
Cc1cc(C(=O)NOCCO)c(Nc2ccc(I)cc2F)n(C)c1=O (10 µM),0,0,0,0,0,0,0,0,0,1,0,0,0,0,0,0
O=C(Nc1ccc(Cl)cc1)C1CCCN(C(=O)c2cc(C(F)(F)F)cc(C(F)(F)F)c2)C1 (stereo not drawn) (10 µM),0,0,4,0,0,1,0,0,1,0,0,0,0,0,4,0
C=CC(=O)Nc1ccc(C(=O)Nc2[nH]nc3c2CN(C(=O)N[C@H](CN(C)C)c2ccccc2)C3(C)C)cc1 (10 µM),0,0,0,0,0,2,0,1,2,3,1,0,0,0,3,1
NCCOc1ccc(Cl)cc1C(=O)Nc1ccc([N+](=O)[O-])cc1Cl [HJC0152 hydrochloride] (2 µM),0,0,0,0,0,0,0,0,0,0,0,0,0,0,0,0
COc1cc2c(cc1Nc1ncc(C(N)=O)c(Nc3c(F)cccc3C(F)(F)F)n1)CN(C)CC2 (2.5 µM),0,0,0,0,0,0,0,0,0,0,0,0,0,0,0,0
CNC(=O)c1ccc2c(C(=Nc3cccc(CN(C)C)c3)c3ccccc3)c(O)[nH]c2c1 [MEK inhibitor] (10 µM),0,0,0,0,0,0,0,0,0,0,0,0,0,0,0,0
CC(C)=CCC/C(C)=C/CC/C(C)=C/C=C/C(C)=C/C(=O)O [Peretinoin] (10 µM),0,0,0,0,0,0,0,0,0,0,0,0,0,0,0,0

# Sorted by length of the SMILES (high to low): some entries from above
Compound,number of time points [1],number of time points [2],number of time points [3],number of time points [4],number of time points [5],number of time points [6],number of time points [7],number of time points [8],number of time points [9],number of time points [10],number of time points [11],number of time points [12],number of time points [13],number of time points [14],number of time points [15],number of time points [16]
Cc1cc(C(=O)NC(C)(C)C)cc(C#Cc2ccc3c4c(oc3c2)C(C)(C)c2cc(NS(C)(=O)=O)ccc2C4=O)n1 (10 µM),0,0,0,0,0,0,0,0,0,0,0,0,0,0,0,1
O=C(Nc1ccc(Cl)cc1)C1CCCN(C(=O)c2cc(C(F)(F)F)cc(C(F)(F)F)c2)C1 (stereo not drawn) (10 µM),0,0,4,0,0,1,0,0,1,0,0,0,0,0,4,0
CC(C)=CCC/C(C)=C/CC/C(C)=C/C=C/C(C)=C/C(=O)O [Peretinoin] (10 µM),0,0,0,0,0,0,0,0,0,0,0,0,0,0,0,0
